Reference: patent US20210147526A1
Results are given in words; binding and its absence hold for the method and conditions named. Some results given as binding are weak or reduced against the parent protein; the word gives no strength.

Amino acid sequences for entries named in this document (tags omitted). A change or cut given only in a name is not applied to a line headed by its entry.
UniProt Q13683: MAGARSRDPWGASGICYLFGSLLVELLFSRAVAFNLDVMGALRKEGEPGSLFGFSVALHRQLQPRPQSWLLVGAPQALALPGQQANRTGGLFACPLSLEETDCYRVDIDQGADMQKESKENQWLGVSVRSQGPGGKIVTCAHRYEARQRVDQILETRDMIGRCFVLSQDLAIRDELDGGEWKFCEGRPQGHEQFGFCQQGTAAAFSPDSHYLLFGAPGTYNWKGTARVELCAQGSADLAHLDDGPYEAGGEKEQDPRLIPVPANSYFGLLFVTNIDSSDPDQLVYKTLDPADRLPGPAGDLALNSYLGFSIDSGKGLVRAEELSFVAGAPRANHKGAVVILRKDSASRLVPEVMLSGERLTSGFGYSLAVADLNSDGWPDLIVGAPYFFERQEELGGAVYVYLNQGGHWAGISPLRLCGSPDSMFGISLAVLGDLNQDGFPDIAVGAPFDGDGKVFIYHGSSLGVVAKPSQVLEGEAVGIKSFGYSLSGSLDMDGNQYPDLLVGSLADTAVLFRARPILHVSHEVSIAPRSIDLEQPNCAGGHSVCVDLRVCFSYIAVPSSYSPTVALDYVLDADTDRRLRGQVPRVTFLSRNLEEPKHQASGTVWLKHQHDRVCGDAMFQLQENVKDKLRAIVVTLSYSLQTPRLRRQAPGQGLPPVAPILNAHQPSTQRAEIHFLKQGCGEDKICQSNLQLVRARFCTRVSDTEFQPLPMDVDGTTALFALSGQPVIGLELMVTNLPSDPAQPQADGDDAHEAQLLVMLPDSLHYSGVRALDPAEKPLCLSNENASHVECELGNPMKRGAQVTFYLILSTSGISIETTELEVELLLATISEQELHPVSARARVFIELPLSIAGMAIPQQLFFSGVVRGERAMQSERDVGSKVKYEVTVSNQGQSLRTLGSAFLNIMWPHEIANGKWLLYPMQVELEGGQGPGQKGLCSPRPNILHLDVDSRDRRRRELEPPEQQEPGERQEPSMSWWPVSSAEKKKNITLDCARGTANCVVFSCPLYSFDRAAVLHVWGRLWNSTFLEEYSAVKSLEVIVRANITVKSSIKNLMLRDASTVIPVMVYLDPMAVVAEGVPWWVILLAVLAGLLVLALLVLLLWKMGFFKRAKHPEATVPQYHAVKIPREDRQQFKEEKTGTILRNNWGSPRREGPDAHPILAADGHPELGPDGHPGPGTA
UniProt P05556: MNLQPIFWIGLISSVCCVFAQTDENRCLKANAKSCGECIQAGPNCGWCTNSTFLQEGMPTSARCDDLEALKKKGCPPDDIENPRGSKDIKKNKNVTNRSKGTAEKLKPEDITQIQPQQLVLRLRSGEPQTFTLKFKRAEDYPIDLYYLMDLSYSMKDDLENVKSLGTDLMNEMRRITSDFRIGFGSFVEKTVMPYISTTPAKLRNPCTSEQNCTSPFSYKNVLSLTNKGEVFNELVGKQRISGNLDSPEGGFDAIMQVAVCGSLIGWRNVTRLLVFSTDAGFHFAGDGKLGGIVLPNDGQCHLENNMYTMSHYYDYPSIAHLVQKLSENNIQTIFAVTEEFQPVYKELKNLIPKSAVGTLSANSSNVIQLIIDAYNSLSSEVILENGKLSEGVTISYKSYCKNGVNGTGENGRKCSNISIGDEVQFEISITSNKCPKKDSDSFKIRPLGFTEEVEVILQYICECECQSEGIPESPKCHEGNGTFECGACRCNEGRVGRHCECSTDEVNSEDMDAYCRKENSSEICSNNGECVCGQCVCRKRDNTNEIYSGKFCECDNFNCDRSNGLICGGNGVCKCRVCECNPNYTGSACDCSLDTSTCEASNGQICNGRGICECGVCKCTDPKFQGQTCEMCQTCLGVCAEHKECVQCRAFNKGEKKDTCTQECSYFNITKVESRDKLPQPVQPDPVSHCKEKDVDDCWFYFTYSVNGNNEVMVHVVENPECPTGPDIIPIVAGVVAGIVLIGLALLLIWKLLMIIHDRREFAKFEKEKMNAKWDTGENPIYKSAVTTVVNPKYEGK
UniProt Q61738: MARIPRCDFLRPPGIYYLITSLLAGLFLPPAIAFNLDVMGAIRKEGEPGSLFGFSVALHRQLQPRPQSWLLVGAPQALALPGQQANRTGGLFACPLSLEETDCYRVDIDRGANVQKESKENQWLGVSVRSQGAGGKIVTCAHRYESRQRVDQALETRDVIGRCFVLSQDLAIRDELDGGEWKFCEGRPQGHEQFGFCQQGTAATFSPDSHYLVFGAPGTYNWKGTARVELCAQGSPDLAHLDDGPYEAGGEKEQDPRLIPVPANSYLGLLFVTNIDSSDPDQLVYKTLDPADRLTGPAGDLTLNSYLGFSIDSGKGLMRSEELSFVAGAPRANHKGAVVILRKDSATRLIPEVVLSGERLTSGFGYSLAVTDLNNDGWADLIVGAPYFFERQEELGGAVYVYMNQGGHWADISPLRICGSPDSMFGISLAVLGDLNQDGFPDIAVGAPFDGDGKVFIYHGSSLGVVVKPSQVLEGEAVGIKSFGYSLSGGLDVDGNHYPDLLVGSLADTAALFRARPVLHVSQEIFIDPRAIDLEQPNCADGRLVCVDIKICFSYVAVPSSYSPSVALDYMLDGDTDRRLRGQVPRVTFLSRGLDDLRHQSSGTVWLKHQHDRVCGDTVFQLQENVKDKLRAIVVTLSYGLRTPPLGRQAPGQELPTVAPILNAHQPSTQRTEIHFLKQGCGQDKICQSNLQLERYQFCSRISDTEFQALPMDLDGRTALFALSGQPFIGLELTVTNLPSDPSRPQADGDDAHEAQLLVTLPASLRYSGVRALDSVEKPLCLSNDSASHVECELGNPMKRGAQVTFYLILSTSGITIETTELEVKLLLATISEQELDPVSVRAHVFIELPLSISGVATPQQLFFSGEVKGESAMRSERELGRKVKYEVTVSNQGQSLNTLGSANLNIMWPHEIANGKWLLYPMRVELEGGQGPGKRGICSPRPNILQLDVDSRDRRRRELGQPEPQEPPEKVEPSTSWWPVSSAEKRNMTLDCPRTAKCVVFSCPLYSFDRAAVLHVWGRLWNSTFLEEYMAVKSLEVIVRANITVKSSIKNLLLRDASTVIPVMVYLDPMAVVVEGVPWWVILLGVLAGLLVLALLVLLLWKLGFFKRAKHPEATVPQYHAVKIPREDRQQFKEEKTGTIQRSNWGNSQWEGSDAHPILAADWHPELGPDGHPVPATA
UniProt P09055: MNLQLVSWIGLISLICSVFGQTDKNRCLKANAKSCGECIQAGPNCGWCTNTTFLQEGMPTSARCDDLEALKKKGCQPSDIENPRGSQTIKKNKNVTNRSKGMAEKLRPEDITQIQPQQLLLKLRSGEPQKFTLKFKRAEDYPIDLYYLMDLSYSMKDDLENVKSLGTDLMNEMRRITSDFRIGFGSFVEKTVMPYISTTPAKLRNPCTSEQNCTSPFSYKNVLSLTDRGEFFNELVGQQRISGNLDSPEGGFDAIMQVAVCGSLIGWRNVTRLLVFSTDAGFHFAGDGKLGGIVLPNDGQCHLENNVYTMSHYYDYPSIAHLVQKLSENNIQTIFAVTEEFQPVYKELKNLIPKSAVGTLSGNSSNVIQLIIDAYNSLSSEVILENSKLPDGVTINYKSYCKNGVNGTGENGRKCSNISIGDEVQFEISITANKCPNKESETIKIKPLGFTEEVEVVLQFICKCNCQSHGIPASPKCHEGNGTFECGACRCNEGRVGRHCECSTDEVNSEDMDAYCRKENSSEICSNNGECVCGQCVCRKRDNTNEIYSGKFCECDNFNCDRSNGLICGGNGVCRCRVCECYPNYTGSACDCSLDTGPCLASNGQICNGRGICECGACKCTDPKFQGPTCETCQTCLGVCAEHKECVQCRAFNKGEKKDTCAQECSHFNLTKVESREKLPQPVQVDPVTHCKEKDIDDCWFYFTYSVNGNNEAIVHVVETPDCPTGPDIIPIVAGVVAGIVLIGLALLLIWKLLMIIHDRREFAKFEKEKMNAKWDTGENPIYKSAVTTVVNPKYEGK

Columns and labels:
[1] = molecular target: Human Integrin α7β1 (human) (UniProt Q13683+P05556); test: binding kinetics, Example 4
[2] = molecular target: Mouse Integrin α7β1 (mouse) (UniProt Q61738+P09055); test: binding kinetics, Example 4

- binding [1]: binds
- binding [2]: binds
B1: VL3VHK20TFT monoclonal antibody (antibody, human IgG4 S228P, kappa, V domains shown)
VH: QVQLVQSGAEVKKPGASVKVSCKASGYTFTKYWINWVRQAPGQGLEWMGIIYPGSSTSNYNEKFKTRVTMTVDTSTSTAYMELSSLRSEDTAVYYCVKNDNWGQGTLVTVSS
VL: DIQMTQSPSSLSASVGDRVTITCRASESVDNYGISFMNWFQQKPGKAPKLLIYAASDLGSGVPSRFSGSGSGTDFTLTISSLQPEDFATYYCHQSKEVPYTFGQGTKLEIKR
